Construct, isoform or probe ends are uncertain for at least one entry. Where cells or extracts were used, other partners may take part. For some of these results: Negatives hold for the conditions tested.
Key:
PSMA on PC3(PSMA+) cells [1] = biological target: PSMA on PC3(PSMA+) cells (UniProt Q04609); experiment: cell fluorescence microscopy; settings: 37 C, 2'-fluoro pyrimidines, Cell assays mostly in DPBS at 37 C (4 C for surface binding), washes DPBS, 0.5 M NaCl +/- 0.2 N acetic acid or trypsin, Qdot flow after 10% FBS/DPBS block, protein on the cell surface
PSMA on PC3(PSMA+) cells [2] = biological target: PSMA on PC3(PSMA+) cells (UniProt Q04609); experiment: flow cytometry; settings: 1 uM FAM-A9g, 4 C and 37 C; 2'-fluoro pyrimidines; Cell assays mostly in DPBS at 37 C (4 C for surface binding), washes DPBS, 0.5 M NaCl +/- 0.2 N acetic acid or trypsin; Qdot flow after 10% FBS/DPBS block; protein on the cell surface
PSMA on PC3(PSMA+) cells [3] = biological target: PSMA on PC3(PSMA+) cells (UniProt Q04609); experiment: plate-reader fluorescence on fixed cells; settings: 200 nM FAM-A9g, signal lost with 0.5 M NaCl wash; 2'-fluoro pyrimidines; Cell assays mostly in DPBS at 37 C (4 C for surface binding), washes DPBS, 0.5 M NaCl +/- 0.2 N acetic acid or trypsin; Qdot flow after 10% FBS/DPBS block; protein on the cell surface
TrkB on HEK293 cells = experiment: antibody amplification cell microscopy; settings: 100 nM, 37 C; 2'-fluoro pyrimidines; Cell assays mostly in DPBS at 37 C (4 C for surface binding), washes DPBS, 0.5 M NaCl +/- 0.2 N acetic acid or trypsin; Qdot flow after 10% FBS/DPBS block; protein on the cell surface; label: 3'-FAM
HER2 (rat) (rat) = HER2 (rat) (rat) (UniProt P06494); experiment: plate-reader fluorescence on fixed cells; settings: 1 uM FAM-E1, residual after 0.5 M NaCl wash; 2'-fluoro pyrimidines; Cell assays mostly in DPBS at 37 C (4 C for surface binding), washes DPBS, 0.5 M NaCl +/- 0.2 N acetic acid or trypsin; Qdot flow after 10% FBS/DPBS block; protein on the cell surface; label: FAM

Protein sequences, listed by entry. Tags and fused reporters are not part of them. Lines headed by an entry give the natural chain unless they say otherwise; changes in a name come on top.
UniProt Q04609: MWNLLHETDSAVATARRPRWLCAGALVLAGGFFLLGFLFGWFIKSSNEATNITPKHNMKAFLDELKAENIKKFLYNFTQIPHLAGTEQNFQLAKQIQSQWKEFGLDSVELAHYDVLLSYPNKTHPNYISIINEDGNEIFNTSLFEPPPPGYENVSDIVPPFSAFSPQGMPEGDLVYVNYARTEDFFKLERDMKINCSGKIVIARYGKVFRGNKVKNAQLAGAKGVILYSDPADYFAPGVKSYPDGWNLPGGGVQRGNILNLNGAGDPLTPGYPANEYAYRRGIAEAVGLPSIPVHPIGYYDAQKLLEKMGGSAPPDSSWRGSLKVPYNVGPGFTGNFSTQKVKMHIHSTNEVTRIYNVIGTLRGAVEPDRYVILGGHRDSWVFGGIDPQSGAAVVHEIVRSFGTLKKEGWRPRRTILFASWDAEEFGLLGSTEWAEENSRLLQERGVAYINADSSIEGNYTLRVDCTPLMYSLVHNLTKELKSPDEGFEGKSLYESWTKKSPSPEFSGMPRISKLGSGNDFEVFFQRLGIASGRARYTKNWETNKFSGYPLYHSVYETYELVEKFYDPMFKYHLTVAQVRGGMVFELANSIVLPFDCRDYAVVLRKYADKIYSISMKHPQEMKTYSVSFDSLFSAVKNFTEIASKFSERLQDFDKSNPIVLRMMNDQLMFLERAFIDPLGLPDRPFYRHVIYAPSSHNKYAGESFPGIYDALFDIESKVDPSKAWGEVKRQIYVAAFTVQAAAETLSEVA
UniProt P06494: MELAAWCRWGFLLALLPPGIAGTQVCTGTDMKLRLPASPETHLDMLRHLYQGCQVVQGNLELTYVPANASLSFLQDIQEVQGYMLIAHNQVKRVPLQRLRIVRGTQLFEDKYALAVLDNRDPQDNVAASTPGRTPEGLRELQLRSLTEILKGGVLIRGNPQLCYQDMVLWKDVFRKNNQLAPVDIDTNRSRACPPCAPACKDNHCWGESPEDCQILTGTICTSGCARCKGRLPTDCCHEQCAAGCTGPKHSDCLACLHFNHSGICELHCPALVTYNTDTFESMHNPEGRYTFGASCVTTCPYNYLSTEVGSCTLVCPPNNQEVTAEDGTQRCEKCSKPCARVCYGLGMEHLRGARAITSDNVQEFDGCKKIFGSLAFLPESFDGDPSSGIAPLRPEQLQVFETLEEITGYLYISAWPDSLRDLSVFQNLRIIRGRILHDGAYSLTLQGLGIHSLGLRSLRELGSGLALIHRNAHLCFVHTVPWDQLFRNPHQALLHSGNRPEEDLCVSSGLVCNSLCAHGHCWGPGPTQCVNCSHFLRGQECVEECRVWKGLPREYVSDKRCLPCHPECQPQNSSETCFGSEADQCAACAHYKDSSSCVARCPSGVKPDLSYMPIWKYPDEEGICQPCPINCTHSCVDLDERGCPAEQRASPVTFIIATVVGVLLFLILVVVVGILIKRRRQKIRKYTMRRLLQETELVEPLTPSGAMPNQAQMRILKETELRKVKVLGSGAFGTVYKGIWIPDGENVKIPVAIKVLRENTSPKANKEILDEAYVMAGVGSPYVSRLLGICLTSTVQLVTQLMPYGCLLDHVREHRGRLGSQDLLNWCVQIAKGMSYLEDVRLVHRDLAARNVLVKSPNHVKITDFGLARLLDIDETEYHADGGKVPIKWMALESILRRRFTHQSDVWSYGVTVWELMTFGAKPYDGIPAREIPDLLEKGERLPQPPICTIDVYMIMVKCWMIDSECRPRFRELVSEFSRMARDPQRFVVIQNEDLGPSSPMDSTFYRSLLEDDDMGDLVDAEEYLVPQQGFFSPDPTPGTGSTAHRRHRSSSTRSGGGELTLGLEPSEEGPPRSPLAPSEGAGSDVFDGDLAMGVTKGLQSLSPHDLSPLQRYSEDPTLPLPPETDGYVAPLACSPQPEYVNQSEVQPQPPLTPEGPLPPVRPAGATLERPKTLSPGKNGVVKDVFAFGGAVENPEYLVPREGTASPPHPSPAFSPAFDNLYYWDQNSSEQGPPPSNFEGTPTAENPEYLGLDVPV

Does “GGGAGGACGAUGCGGGACUAGCGAUCUGUUACGCACAGACGACUCGCCCGA [Scr]” bind (PSMA on PC3(PSMA+) cells [1]; 500 nM, label: 5'-FAM)?
Result: no binding

What does the source list for “GGGACCGAAAAAGACCUGACUUCUAUACUAAGUCUACGUUCCC [A9g]”?
binding result (PSMA on PC3(PSMA+) cells [2]): binds; binding result (PSMA on PC3(PSMA+) cells [1]; 500 nM FAM-A9g, no signal in PSMA- cells): binds; binding result (PSMA on PC3(PSMA+) cells [3]): binds

Does “GGGAGGACGAUGCGGUCGUAUUAUCCGCUGCACGCCAGACGACUCGCCCGA [C4-3]” bind (TrkB on HEK293 cells)?
Result: binds

Does “GGGAGGACGAUGCGGUUUGGGGUUUUCCCGUGCCCCAGACGACUCGCCCGA [Scr2 (control aptamer for TrkB)]” bind (TrkB on HEK293 cells)?
Result: no binding

Does “GGGAGGACGAUGCGGUCCUGUCGUCUGUUCGUCCCCAGACGACUCGCCCGA [E1]” bind (HER2 (rat) (rat))?
Result: binds
